Earlier results on 1 substance are cited in patent US20190014793A1, “METHOD OF PROVIDING NUTRITION TO INFANTS” (ABBOTT LABORATORIES, priority 2011, published 2019).

For the data set the following is noted: essential amino acid profile; cited from earlier work.

Casein: the Histidine concentration was 2.7 g per 100 g of protein, the Isoleucine concentration was 5.6 g per 100 g of protein, the Leucine concentration is 9.7 g per 100 g of protein and the Lysine concentration is 7.3 g per 100 g of protein. The “Met + Cys concentration” value was 3.0 g per 100 g of protein, the Threonine concentration was 4.2 g per 100 g of protein, the “Total essential amino acid concentration” value is given as 50.3 g per 100 g of protein and the Tryptophan concentration is listed as 1.2 g per 100 g of protein. For the same substance, the “Tyr + Phe concentration” value was 9.9 g per 100 g of protein and the Valine concentration is recorded as 6.7 g per 100 g of protein.
